Laboratory results published in article PMC11570694.

Molecular target: T1, EGFP-tagged TTC5 expressed in 293 T-REx TTC5 KO cells (human) (UniProt Q8N0Z6)
T1 sequence: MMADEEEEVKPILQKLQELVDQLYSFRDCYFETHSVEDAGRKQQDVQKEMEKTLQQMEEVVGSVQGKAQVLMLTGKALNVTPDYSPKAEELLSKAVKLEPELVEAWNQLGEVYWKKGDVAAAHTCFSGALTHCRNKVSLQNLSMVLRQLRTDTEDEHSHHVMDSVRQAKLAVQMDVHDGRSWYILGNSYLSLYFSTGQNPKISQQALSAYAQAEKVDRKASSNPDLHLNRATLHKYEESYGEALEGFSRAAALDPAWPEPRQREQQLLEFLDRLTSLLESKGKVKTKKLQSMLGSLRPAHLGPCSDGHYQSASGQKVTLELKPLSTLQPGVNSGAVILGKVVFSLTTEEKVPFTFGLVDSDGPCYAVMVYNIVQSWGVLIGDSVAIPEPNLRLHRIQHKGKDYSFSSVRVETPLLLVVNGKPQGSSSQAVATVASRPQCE
Assay: affinity purification with mass spectrometry; EGFP-TTC5 from 293 T-REx TTC5 KO cells, treated with 10 μM colchicine for 0-180 min, GFP-trap agarose, label-free LC-MS/MS

B1: SCAPER (S-Phase Cyclin A Associated Protein in the ER) (protein, UniProt Q9BY12 1-1400)
chain: MMASFQRSNSHDKVRRIVAEEGRTARNLIAWSVPLESKDDDGKPKCQTGGKSKRTIQGTHKTTKQSTAVDCKITSSTTGDKHFDKSPTKTRHPRKIDLRARYWAFLFDNLRRAVDEIYVTCESDQSVVECKEVLMMLDNYVRDFKALIDWIQLQEKLEKTDAQSRPTSLAWEVKKMSPGRHVIPSPSTDRINVTSNARRSLNFGGSTGTVPAPRLAPTGVSWADKVKAHHTGSTASSEITPAQSCPPMTVQKASRKNERKDAEGWETVQRGRPIRSRSTAVMPKVSLATEATRSKDDSDKENVCLLPDESIQKGQFVGDGTSNTIESHPKDSLHSCDHPLAEKTQFTVSTLDDVKNSGSIRDNYVRTSEISAVHIDTECVSVMLQAGTPPLQVNEEKFPAEKARIENEMDPSDISNSMAEVLAKKEELADRLEKANEEAIASAIAEEEQLTREIEAEENNDINIETDNDSDFSASMGSGSVSFCGMSMDWNDVLADYEARESWRQNTSWGDIVEEEPARPPGHGIHMHEKLSSPSRKRTIAESKKKHEEKQMKAQQLREKLREEKTLKLQKLLEREKDVRKWKEELLDQRRRMMEEKLLHAEFKREVQLQAIVKKAQEEEAKVNEIAFINTLEAQNKRHDVLSKLKEYEQRLNELQEERQRRQEEKQARDEAVQERKRALEAERQARVEELLMKRKEQEARIEQQRQEKEKAREDAARERARDREERLAALTAAQQEAMEELQKKIQLKHDESIRRHMEQIEQRKEKAAELSSGRHANTDYAPKLTPYERKKQCSLCNVLISSEVYLFSHVKGRKHQQAVRENTSIQGRELSDEEVEHLSLKKYIIDIVVESTAPAEALKDGEERQKNKKKAKKIKARMNFRAKEYESLMETKNSGSDSPYKAKLQRLAKDLLKQVQVQDSGSWANNKVSALDRTLGEITRILEKENVADQIAFQAAGGLTALEHILQAVVPATNVNTVLRIPPKSLCNAINVYNLTCNNCSENCSDVLFSNKITFLMDLLIHQLTVYVPDENNTILGRNTNKQVFEGLTTGLLKVSAVVLGCLIANRPDGNCQPATPKIPTQEMKNKPSQGDPFNNRVQDLISYVVNMGLIDKLCACFLSVQGPVDENPKMAIFLQHAAGLLHAMCTLCFAVTGRSYSIFDNNRQDPTGLTAALQATDLAGVLHMLYCVLFHGTILDPSTASPKENYTQNTIQVAIQSLRFFNSFAALHLPAFQSIVGAEGLSLAFRHMASSLLGHCSQVSCESLLHEVIVCVGYFTVNHPDNQVIVQSGRHPTVLQKLCQLPFQYFSDPRLIKVLFPSLIAACYNNHQNKIILEQEMSCVLLATFIQDLAQTPGQAENQPYQPKGKCLGSQDYLELANRFPQQAWEEARQFFLKKEKK
binding: binds

No constants are given. Whether binding was seen depends on the method and setting. In cells and extracts the contact can be indirect. These calls come from enrichment with a bait or labelling near it, and not all partners need be listed. Where a sequence is shown, tags or fusion partners need not be part of it.
